# Experimental data from the supplement of paper PMC8728848.
# This is one part of the list.
# B1: Eosinophil-derived neurotoxin (EDN) (Homo sapiens), P10153 (protein)
# chain: MVPKLFTSQICLLLLLGLLAVEGSLHVKPPQFTWAQWFETQHINMTSQQCTNAMQVINNYQRRCKNQNTFLLTTFANVVNVCGNPNMTCPSNKTRKNCHHSGSQVPLIHCNLTTPSPQNISNCRYAQTPANMFYIVACDNRDQRRDPPQYPVVPVHLDRII
# Legend:
# Assay in all cases: glycan array binding signal (z-score within array); higher = stronger binding
# Conditions in all cases: glycan notation: IUPAC condensed, linker removed
# GlcNAc(b1-6)GalNAc = target: GlcNAc(b1-6)GalNAc
# How it was run: (§1)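 The binding signal is a Z-score computed within each array and averaged over linkers. Arrays of the same protein sequence at different concentrations or buffers were also averaged together. Data originate from 3228 arrays in the Consortium for Functional Glycomics database, kept only where the protein sequence was available.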
# GlcNAc3Prop(b1-4)GlcNAc = target: GlcNAc3Prop(b1-4)GlcNAc
# How it was run: as §1
# [1] = target: GlcNAc6S(b1-3)Gal(b1-4)GlcNAc
# How it was run: as §1
# Kdn(a2-3)Gal(b1-3)GalNAc = target: Kdn(a2-3)Gal(b1-3)GalNAc
# How it was run: as §1
# Kdn(a2-3)Gal(b1-3)GlcNAc = target: Kdn(a2-3)Gal(b1-3)GlcNAc
# How it was run: as §1
# Kdn(a2-3)Gal(b1-4)Glc = target: Kdn(a2-3)Gal(b1-4)Glc
# How it was run: as §1
# Kdn(a2-3)Gal(b1-4)GlcNAc = target: Kdn(a2-3)Gal(b1-4)GlcNAc
# How it was run: as §1
# [2] = target: Kdn(a2-3)Gal(b1-4)[Fuc(a1-3)]GlcNAc
# How it was run: as §1
# Kdn(a2-6)Gal(b1-4)GlcNAc = target: Kdn(a2-6)Gal(b1-4)GlcNAc
# How it was run: as §1
# [3] = target: Man(a1-2)Man(a1-2)Man(a1-3)Man
# How it was run: as §1
# [4] = target: Man(a1-2)Man(a1-2)Man(a1-6)[Man(a1-3)]Man
# How it was run: as §1
# Man(a1-2)Man(a1-3)Man = target: Man(a1-2)Man(a1-3)Man
# How it was run: as §1
# [5] = target: Man(a1-2)Man(a1-3)[Man(a1-2)Man(a1-6)]Man
# How it was run: as §1
# [6] = target: Man(a1-2)Man(a1-3)[Man(a1-2)Man(a1-6)]Man(a1-6)[Man(a1-2)Man(a1-2)Man(a1-3)]Man
# How it was run: as §1
# [7] = target: Man(a1-2)Man(a1-3)[Man(a1-2)Man(a1-6)]Man(a1-6)[Man(a1-2)Man(a1-2)Man(a1-3)]Man(b1-4)GlcNAc(b1-4)GlcNAc
# How it was run: as §1
# [8] = target: Man(a1-2)Man(a1-3)[Man(a1-6)]Man(a1-6)[Man(a1-2)Man(a1-3)]Man(b1-4)GlcNAc(b1-4)GlcNAc
# How it was run: as §1
# [9] = target: Man(a1-2)Man(a1-6)[Man(a1-3)]Man(a1-6)[Man(a1-2)Man(a1-2)Man(a1-3)]Man
# How it was run: as §1
# [10] = target: Man(a1-2)Man(a1-6)[Man(a1-3)]Man(a1-6)[Man(a1-2)Man(a1-2)Man(a1-3)]Man(b1-4)GlcNAc(b1-4)GlcNAc
# How it was run: as §1
# Man(a1-3)[Man(a1-6)]Man = target: Man(a1-3)[Man(a1-6)]Man
# How it was run: as §1
# [11] = target: Man(a1-3)[Man(a1-6)]Man(a1-6)[Man(a1-2)Man(a1-3)]Man(b1-4)GlcNAc(b1-4)GlcNAc
# How it was run: as §1
# [12] = target: Man(a1-3)[Man(a1-6)]Man(a1-6)[Man(a1-3)]Man
# How it was run: as §1
# [13] = target: Man(a1-3)[Man(a1-6)]Man(a1-6)[Man(a1-3)]Man(b1-4)GlcNAc(b1-4)GlcNAc
# How it was run: as §1
# [14] = target: Man(a1-3)[Man(a1-6)]Man(b1-4)GlcNAc(b1-4)GlcNAc
# How it was run: as §1
# Man(a1-6)Man = target: Man(a1-6)Man
# How it was run: as §1
# Man(b1-4)GlcNAc = target: Man(b1-4)GlcNAc
# How it was run: as §1
# Neu5Ac(a2-3)Gal = target: Neu5Ac(a2-3)Gal
# How it was run: as §1
# [15] = target: Neu5Ac(a2-3)Gal(b1-3)GalNAc
# How it was run: as §1
# [16] = target: Neu5Ac(a2-3)Gal(b1-3)GalNAc(b1-3)Gal(a1-4)Gal(b1-4)Glc
# How it was run: as §1
# [17] = target: Neu5Ac(a2-3)Gal(b1-3)GalNAc(b1-4)[Neu5Ac(a2-3)]Gal(b1-4)Glc
# How it was run: as §1
# [18] = target: Neu5Ac(a2-3)Gal(b1-3)GalNAc(b1-4)[Neu5Ac(a2-8)Neu5Ac(a2-3)]Gal(b1-4)Glc
# How it was run: as §1
# [19] = target: Neu5Ac(a2-3)Gal(b1-3)GalNAc6S
# How it was run: as §1
# [20] = target: Neu5Ac(a2-3)Gal(b1-3)GlcNAc
# How it was run: as §1
# [21] = target: Neu5Ac(a2-3)Gal(b1-3)GlcNAc(b1-3)Gal(b1-3)GlcNAc
# How it was run: as §1
# [22] = target: Neu5Ac(a2-3)Gal(b1-3)GlcNAc(b1-3)Gal(b1-4)GlcNAc
# How it was run: as §1
# [23] = target: Neu5Ac(a2-3)Gal(b1-3)GlcNAc(b1-3)GalNAc
# How it was run: as §1
# [24] = target: Neu5Ac(a2-3)Gal(b1-3)GlcNAc6S
# How it was run: as §1
# [25] = target: Neu5Ac(a2-3)Gal(b1-3)[Fuc(a1-4)]GlcNAc
# How it was run: as §1
# [26] = target: Neu5Ac(a2-3)Gal(b1-3)[Fuc(a1-4)]GlcNAc(b1-3)Gal(b1-3)[Fuc(a1-4)]GlcNAc
# How it was run: as §1
# [27] = target: Neu5Ac(a2-3)Gal(b1-3)[Fuc(a1-4)]GlcNAc(b1-3)Gal(b1-4)[Fuc(a1-3)]GlcNAc
# How it was run: as §1
# [28] = target: Neu5Ac(a2-3)Gal(b1-3)[Neu5Ac(a2-3)Gal(b1-4)]GlcNAc
# How it was run: as §1
# [29] = target: Neu5Ac(a2-3)Gal(b1-3)[Neu5Ac(a2-6)]GalNAc
# How it was run: as §1
# Neu5Ac(a2-3)Gal(b1-4)Glc = target: Neu5Ac(a2-3)Gal(b1-4)Glc
# How it was run: as §1
# [30] = target: Neu5Ac(a2-3)Gal(b1-4)GlcNAc
# How it was run: as §1
# [31] = target: Neu5Ac(a2-3)Gal(b1-4)GlcNAc(b1-2)Man(a1-3)[GlcNAc(b1-2)Man(b1-4)GlcNAc(b1-2)Man(a1-6)]Man(b1-4)GlcNAc(b1-4)GlcNAc
# How it was run: as §1
# [32] = target: Neu5Ac(a2-3)Gal(b1-4)GlcNAc(b1-2)Man(a1-3)[Neu5Ac(a2-6)Gal(b1-4)GlcNAc(b1-2)Man(a1-6)]Man(b1-4)GlcNAc(b1-4)GlcNAc
# How it was run: as §1
binder,measurement,setting,value
B1,glycan array binding signal (z-score),GlcNAc(b1-6)GalNAc,0.258
same,glycan array binding signal (z-score),GlcNAc3Prop(b1-4)GlcNAc,0.196
same,glycan array binding signal (z-score),[1],-1.39
same,glycan array binding signal (z-score),Kdn(a2-3)Gal(b1-3)GalNAc,-0.354
same,glycan array binding signal (z-score),Kdn(a2-3)Gal(b1-3)GlcNAc,0.411
same,glycan array binding signal (z-score),Kdn(a2-3)Gal(b1-4)Glc,-0.591
same,glycan array binding signal (z-score),Kdn(a2-3)Gal(b1-4)GlcNAc,0.615
same,glycan array binding signal (z-score),[2],0.206
same,glycan array binding signal (z-score),Kdn(a2-6)Gal(b1-4)GlcNAc,-0.368
same,glycan array binding signal (z-score),[3],0.33
same,glycan array binding signal (z-score),[4],-0.069
same,glycan array binding signal (z-score),Man(a1-2)Man(a1-3)Man,0.814
same,glycan array binding signal (z-score),[5],0.08
same,glycan array binding signal (z-score),[6],-0.124
same,glycan array binding signal (z-score),[7],0.081
same,glycan array binding signal (z-score),[8],0.104
same,glycan array binding signal (z-score),[9],0.183
same,glycan array binding signal (z-score),[10],0.515
same,glycan array binding signal (z-score),Man(a1-3)[Man(a1-6)]Man,-0.449
same,glycan array binding signal (z-score),[11],-0.496
same,glycan array binding signal (z-score),[12],-0.419
same,glycan array binding signal (z-score),[13],-0.281
same,glycan array binding signal (z-score),[14],-0.552
same,glycan array binding signal (z-score),Man(a1-6)Man,-0.56
same,glycan array binding signal (z-score),Man(b1-4)GlcNAc,0.116
same,glycan array binding signal (z-score),Neu5Ac(a2-3)Gal,0.063
same,glycan array binding signal (z-score),[15],0.372
same,glycan array binding signal (z-score),[16],-0.236
same,glycan array binding signal (z-score),[17],0.077
same,glycan array binding signal (z-score),[18],0
same,glycan array binding signal (z-score),[19],0.027
same,glycan array binding signal (z-score),[20],-0.205
same,glycan array binding signal (z-score),[21],-0.703
same,glycan array binding signal (z-score),[22],0.141
same,glycan array binding signal (z-score),[23],-0.041
same,glycan array binding signal (z-score),[24],-0.082
same,glycan array binding signal (z-score),[25],0.855
same,glycan array binding signal (z-score),[26],-0.07
same,glycan array binding signal (z-score),[27],0.422
same,glycan array binding signal (z-score),[28],0.04
same,glycan array binding signal (z-score),[29],0.143
same,glycan array binding signal (z-score),Neu5Ac(a2-3)Gal(b1-4)Glc,-0.14
same,glycan array binding signal (z-score),[30],0.614
same,glycan array binding signal (z-score),[31],-0.078
same,glycan array binding signal (z-score),[32],1.08

# A run of entries from the list above, as a working copy:
binder,measurement,setting,value
B1,glycan array binding signal (z-score),Man(a1-3)[Man(a1-6)]Man,-0.449
same,glycan array binding signal (z-score),[11],-0.496
same,glycan array binding signal (z-score),[12],-0.419
same,glycan array binding signal (z-score),[13],-0.281
same,glycan array binding signal (z-score),[14],-0.552
same,glycan array binding signal (z-score),Man(a1-6)Man,-0.56
same,glycan array binding signal (z-score),Man(b1-4)GlcNAc,0.116
same,glycan array binding signal (z-score),Neu5Ac(a2-3)Gal,0.063
same,glycan array binding signal (z-score),[15],0.372
same,glycan array binding signal (z-score),[16],-0.236
same,glycan array binding signal (z-score),[17],0.077
